Tested on: PH5CH8 liver cells
Test: High-throughput hepatic de novo lipogenesis (DNL) assay, high content imaging of steatotic phenotype
Format: cell-based, human

## CC(C)(C)c1ccc(O)c(C(=O)Nc2ccc(C(=O)O)cc2Cl)c1 [Compound 500200, 4-[(5-tert-butyl-2-hydroxybenzene)amido]-3-chlorobenzoic acid]
  shape of concentration curve in DNL assay: inverse concentration curves

## CC(C)(C)c1ccc(O)c(C(=O)Nc2ccc(C(=O)O)cc2C(F)(F)F)c1 [Compound 500873, 4-[(5-tert-butyl-2-hydroxy)amido]-3-(trifluoromethyl)benzoic acid]
  shape of concentration curve in DNL assay: inverse concentration curves
